These are yes or no findings as the source states them, for the method shown. Binding seen in cells or lysates may run through a third protein. Some binding calls cover weakened binding; strength is not graded here.
Target: ORA59 (truncated coding sequence) fused to the N-terminal part of the firefly LUC (Arabidopsis thaliana) (UniProt Q9LND1)
Experiment: split reporter; split-LUC complementation in Arabidopsis protoplasts; ORA59 on the N-terminal part of the firefly LUC, ERFVIIs on the C-terminal part; firefly LUC activity normalized to total protein

The chains behind the UniProt entries cited, without tags or fusion partners. Residues count along the entry.
UniProt Q9LND1, residues 61-244: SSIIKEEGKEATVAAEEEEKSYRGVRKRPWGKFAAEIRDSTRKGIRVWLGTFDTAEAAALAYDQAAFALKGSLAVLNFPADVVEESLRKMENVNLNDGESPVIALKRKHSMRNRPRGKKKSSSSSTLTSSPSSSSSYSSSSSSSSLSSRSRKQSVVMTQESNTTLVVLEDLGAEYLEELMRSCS
UniProt O22259: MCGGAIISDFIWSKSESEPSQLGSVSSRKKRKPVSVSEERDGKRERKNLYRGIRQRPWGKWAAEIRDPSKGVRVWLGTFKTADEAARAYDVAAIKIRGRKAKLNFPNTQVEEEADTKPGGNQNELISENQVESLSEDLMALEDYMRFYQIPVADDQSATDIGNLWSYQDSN
UniProt Q9SSA8: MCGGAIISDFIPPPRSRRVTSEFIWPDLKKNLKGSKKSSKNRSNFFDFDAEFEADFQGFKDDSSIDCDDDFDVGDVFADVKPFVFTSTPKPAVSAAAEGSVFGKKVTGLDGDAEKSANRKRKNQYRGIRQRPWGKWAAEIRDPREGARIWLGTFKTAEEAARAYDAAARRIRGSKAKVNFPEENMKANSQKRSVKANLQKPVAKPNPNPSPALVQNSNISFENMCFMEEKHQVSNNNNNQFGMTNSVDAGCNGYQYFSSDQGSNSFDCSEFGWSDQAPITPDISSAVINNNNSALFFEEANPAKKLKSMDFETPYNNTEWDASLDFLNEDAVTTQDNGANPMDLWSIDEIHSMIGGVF
UniProt P42736: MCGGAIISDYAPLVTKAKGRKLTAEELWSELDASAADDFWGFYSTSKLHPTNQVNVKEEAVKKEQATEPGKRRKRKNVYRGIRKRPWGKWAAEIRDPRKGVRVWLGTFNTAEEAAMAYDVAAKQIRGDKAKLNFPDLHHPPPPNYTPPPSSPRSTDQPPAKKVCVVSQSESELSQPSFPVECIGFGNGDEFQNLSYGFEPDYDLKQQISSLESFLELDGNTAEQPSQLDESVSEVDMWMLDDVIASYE
UniProt Q9LUM4: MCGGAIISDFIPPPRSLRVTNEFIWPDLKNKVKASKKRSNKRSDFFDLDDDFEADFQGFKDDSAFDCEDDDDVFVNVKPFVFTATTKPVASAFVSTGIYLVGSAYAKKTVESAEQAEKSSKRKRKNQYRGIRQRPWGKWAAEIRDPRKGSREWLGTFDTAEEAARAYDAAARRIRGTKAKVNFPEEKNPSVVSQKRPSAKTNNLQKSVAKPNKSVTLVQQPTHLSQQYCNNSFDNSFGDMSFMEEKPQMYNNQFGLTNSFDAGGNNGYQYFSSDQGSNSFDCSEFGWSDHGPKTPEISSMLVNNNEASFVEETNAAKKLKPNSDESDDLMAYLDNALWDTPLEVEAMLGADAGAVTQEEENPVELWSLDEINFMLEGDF
UniProt Q8H0T5: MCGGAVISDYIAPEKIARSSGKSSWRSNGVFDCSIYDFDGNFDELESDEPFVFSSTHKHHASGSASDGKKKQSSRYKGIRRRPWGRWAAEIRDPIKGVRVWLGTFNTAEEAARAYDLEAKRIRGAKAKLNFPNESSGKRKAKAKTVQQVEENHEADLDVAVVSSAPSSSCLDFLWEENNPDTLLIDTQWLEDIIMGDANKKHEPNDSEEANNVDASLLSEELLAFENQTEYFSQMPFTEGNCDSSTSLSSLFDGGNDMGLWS

| Substance | binding |
| --- | --- |
| HYPOXIA RESPONSIVE ERF2 (HRE2), full-length, fused to the C-terminal part of the firefly LUC (from UniProt O22259 1-171) | no binding |
| RAP2.12, full-length, fused to the C-terminal part of the firefly LUC (from UniProt Q9SSA8 1-358) | binds |
| RELATED TO AP2.3 (RAP2.3), full-length, fused to the C-terminal part of the firefly LUC (from UniProt P42736 1-248) | binds |

Continued, values first:

| binding | Substance |
| --- | --- |
| binds | RAP2.2, full-length, fused to the C-terminal part of the firefly LUC (from UniProt Q9LUM4 1-379) |
| binds | hypoxia-responsive ERF 1 (HRE1), full-length, fused to the C-terminal part of the firefly LUC (from UniProt Q8H0T5 1-262) |

From article PMC11707877
